Results: paper PMC5358342
Results are given in words; binding and its absence hold for the method and conditions named. In cells and extracts the contact can be indirect. Some entries that bind do so weakly or less than the wild type. For part of these data: Where a sequence is shown, tags or fusion partners need not be part of it.

Sequences of proteins named here, by UniProt entry; tags and fusion partners are left off.
UniProt Q03135: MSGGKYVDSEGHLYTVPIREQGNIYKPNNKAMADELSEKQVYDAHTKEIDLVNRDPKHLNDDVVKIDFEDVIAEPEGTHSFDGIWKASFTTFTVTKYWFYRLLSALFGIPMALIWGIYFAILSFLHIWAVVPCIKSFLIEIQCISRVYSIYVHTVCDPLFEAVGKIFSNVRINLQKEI

T1: RSV M2-1 protein (respiratory syncytial virus (RSV)) (UniProt P04545)
T1 sequence: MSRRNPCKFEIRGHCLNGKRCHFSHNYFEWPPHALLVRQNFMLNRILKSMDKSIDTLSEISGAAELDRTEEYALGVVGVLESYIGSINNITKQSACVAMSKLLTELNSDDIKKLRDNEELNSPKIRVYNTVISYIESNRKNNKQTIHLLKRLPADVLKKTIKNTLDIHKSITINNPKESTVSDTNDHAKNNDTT

T2: RSV matrix (M) protein (respiratory syncytial virus (RSV)) (UniProt P0DOE7)
T2 sequence: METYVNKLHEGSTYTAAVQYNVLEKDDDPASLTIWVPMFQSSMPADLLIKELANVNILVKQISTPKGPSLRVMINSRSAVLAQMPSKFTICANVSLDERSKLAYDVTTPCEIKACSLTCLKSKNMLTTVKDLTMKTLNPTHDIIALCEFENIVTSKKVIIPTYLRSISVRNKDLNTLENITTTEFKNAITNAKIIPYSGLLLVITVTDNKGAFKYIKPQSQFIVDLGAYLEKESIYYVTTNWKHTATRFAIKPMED

T3: cavin-1–EGFP (UniProt Q6NZI2)
T3 sequence: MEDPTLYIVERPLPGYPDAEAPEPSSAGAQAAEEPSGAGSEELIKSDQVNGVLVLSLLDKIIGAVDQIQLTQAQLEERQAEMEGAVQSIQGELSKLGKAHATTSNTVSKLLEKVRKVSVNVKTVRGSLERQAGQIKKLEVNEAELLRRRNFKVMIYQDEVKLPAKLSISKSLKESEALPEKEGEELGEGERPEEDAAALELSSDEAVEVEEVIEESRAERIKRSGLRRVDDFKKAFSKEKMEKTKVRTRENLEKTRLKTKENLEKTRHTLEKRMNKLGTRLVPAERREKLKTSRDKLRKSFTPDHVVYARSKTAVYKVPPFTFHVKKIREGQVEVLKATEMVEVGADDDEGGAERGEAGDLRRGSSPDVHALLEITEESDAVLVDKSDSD

T4: RSV M2-1 protein (respiratory syncytial virus (RSV)), P04545
T4 chain: T1 sequence

B1: cavin-3 (protein, UniProt Q969G5 1-261)
chain: MRESALERGPVPEAPAGGPVHAVTVVTLLEKLASMLETLRERQGGLARRQGGLAGSVRRIQSGLGALSRSHDTTSNTLAQLLAKAERVSSHANAAQERAVRRAAQVQRLEANHGLLVARGKLHVLLFKEEGEVPASAFQKAPEPLGPADQSELGPEQLEAEVGESSDEEPVESRAQRLRRTGLQKVQSLRRALSGRKGPAAPPPTPVKPPRLGPGRSAEAQPEAQPALEPTLEPEPPQDTEEDPGRPGAAEEALLQMESVA
B2: RSV matrix (M) protein, P0DOE7 1-256 (protein)
chain: T2 sequence

How the values were obtained:
[1] = biological target: T1, RSV M2-1 protein (respiratory syncytial virus (RSV)); experiment: co-IP; non-crosslinked whole-cell lysates of mock-infected or RSV-infected HeLa cells (22 hpi), milder detergent and salt concentrations; IP with anti-G, anti-M and anti-M2-1 antibodies; blots for G, M and caveolin-1
[2] = biological target: T2, RSV matrix (M) protein (respiratory syncytial virus (RSV)); experiment: as above
cavin-1–EGFP [3] = biological target: T3, cavin-1–EGFP; experiment: co-sedimentation; mock-infected or RSV-infected HeLa cells stably expressing cavin-1–EGFP crosslinked live at 22 hpi with 2 mM DSP; lysed in 50 mM Tris-HCl pH 8, 300 mM NaCl, 5 mM EDTA, 1% Triton X-100, 1% octyl-glucoside; linear 10–40% sucrose gradient, SW41Ti 37,000 rpm 6 h 4°C; fractions immunoblotted
cavin-1–EGFP [4] = biological target: T3, cavin-1–EGFP; experiment: co-IP; GFP-trap (RFP-trap as control) on pooled 80S peak fractions of the sucrose gradient from DSP-crosslinked mock-infected or RSV-infected HeLa cells expressing cavin-1–EGFP; washes 50 mM Tris-HCl pH 8, 300 mM NaCl, 0.2% Triton X-100; silver stain and immunoblot
[5] = biological target: T4, RSV M2-1 protein (respiratory syncytial …); experiment: co-IP; non-crosslinked whole-cell lysates of mock-infected or RSV-infected HeLa cells (22 hpi), milder detergent and salt concentrations; IP with anti-G, anti-M and anti-M2-1 antibodies; blots for G, M and caveolin-1; details: remark: other sources report otherwise

Molecule | binding [1] | binding [2] | binding (cavin-1–EGFP [3]) | binding (cavin-1–EGFP [4]) | binding [5]
caveolin-1 (from UniProt Q03135 1-178) | binds | binds | binds | binds | 
B1 |  |  |  | binds | 
B2 |  |  |  |  | binds
